{"source": "paper doi:10.1101/019471", "biological_target": "T1, Cf-9-GFP (tomato (Solanum lycopersicum)) (UniProt Q40235)", "T1 sequence": "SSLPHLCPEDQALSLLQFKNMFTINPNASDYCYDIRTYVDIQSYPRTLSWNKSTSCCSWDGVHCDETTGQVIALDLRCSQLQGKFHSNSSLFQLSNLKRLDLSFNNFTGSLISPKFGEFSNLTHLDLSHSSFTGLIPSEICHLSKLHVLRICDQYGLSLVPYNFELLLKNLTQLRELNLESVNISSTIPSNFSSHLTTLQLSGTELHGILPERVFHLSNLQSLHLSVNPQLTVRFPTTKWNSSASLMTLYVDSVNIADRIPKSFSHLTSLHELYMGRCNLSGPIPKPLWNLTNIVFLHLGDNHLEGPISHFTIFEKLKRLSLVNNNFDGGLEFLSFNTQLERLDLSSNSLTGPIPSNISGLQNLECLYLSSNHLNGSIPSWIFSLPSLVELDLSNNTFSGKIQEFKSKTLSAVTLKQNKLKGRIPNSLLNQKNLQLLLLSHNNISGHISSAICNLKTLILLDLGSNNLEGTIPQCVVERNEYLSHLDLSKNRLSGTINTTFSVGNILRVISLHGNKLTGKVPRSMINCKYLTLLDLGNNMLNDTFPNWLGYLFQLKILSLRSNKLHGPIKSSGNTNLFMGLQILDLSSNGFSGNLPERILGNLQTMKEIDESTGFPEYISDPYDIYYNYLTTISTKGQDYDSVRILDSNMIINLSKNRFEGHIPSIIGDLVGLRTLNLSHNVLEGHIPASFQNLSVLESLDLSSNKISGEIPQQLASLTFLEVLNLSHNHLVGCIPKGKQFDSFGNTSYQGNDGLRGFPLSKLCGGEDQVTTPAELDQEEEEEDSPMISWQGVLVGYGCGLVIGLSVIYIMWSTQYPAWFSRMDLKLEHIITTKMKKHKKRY", "experiment": "co-IP", "note": "These are yes or no findings as the source states them, for the method shown. In cells and extracts the contact can be indirect. A result given as binding can be weak or reduced; the word gives no strength. Where a sequence is shown, tags or fusion partners need not be part of it.", "data": [{"substance": "SlSOBIR1-HA (tomato (Solanum lycopersicum)) (receptor)", "values": [{"measurement": "binding", "result": "binds"}]}]}
